One molecule from PMC5144071, “Functional characterization of aconitase X as a cis-3-hydroxy-L-proline dehydratase” (Scientific Reports, 2016) can be followed below.

The test concerns the target PaLhpI protein (aconitase X type I, cis-3-hydroxy-L-proline dehydratase) from Pseudomonas aeruginosa PAO1 (Pseudomonas aeruginosa PAO1) (UniProt Q9I485). As to the kind of experiment: SEC; analytic gel filtration, HiLoad 16/60 Superdex 200 pg column, 50 mM Tris-HCl buffer (pH 8.0), high-molecular-weight calibration kit; 67 kDa against 60 kDa by SDS-PAGE; both purified. A general note: SEC sorts molecules by how far they enter the pores of the column.

These are yes or no findings as the source states them, for the method shown.

B1: PaLhpI protein (aconitase X type I, cis-3-hydroxy-L-proline dehydratase) from Pseudomonas aeruginosa PAO1 (enzyme, UniProt Q9I485 1-580)
chain: MKHAHLIVPRTLVAGSASGELLYAPTGLSFWGGVDPRSAEVIDRHHPLSGRHLHGRLLAIPGGRGSCTGSSVLLELILGGRAPAAILLREPDEILALGAIVAEELFGRSLPIACLGERFDELAAYPWARLADGRLELHRDAPPPLEARPAEALATDAGPRLDAFDQALLAGEHGEAARLAMRIVLRMAALQGAQRLIDIQRAHIDACIYTGPAGLRFAETLRDLGARVRVPTTLNAISVDQRRWREQGVPAALGEPAAALARAYLDMGAQPSFTCAPYLLDDSARAGEQIVWAESNAVLFANSVLGARTNKYADFMDICCALTGRAPLAGCHLDEQRQARVLIEVEDLGSVDDAFYPTLGYLCGLLCDGQIPAIDGLRQRQPDHDALKAFGAALGTSSSVPMFHVIGVTPEAPDLASAFGGRAPRRTLRVGRERLRDAWRELDSAGETRIDLVALGNPHFSASEFAQLAALCHGRRRHPEVALVITSSRQVVAQAEAAGHLATLQAFGARLVTDTCWCMLDEPLVPPGARTLMTNSAKYAHYAPGLVGRQVRFAGLAGCVEAAVGGRSPAGLPAWLSEDC
On to B1, for which the binding entry is “no binding”.
